These results are taken from publication PMC10795463.

Amino acid sequences for entries named in this document (tags omitted).
UniProt Q86U44: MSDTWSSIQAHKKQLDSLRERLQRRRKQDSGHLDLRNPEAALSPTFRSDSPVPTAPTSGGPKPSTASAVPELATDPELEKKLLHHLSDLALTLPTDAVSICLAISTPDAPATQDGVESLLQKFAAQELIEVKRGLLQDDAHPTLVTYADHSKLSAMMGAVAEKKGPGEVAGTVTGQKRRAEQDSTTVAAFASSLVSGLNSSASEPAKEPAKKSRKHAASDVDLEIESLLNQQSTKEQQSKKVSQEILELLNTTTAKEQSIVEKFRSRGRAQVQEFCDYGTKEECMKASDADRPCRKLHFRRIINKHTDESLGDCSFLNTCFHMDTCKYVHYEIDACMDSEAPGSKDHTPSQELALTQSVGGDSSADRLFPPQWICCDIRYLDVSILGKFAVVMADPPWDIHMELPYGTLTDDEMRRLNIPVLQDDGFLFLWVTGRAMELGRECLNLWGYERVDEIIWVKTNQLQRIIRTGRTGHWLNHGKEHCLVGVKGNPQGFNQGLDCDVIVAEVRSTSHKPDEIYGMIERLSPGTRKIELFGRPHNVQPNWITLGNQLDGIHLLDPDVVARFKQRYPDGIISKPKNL
UniProt P60228: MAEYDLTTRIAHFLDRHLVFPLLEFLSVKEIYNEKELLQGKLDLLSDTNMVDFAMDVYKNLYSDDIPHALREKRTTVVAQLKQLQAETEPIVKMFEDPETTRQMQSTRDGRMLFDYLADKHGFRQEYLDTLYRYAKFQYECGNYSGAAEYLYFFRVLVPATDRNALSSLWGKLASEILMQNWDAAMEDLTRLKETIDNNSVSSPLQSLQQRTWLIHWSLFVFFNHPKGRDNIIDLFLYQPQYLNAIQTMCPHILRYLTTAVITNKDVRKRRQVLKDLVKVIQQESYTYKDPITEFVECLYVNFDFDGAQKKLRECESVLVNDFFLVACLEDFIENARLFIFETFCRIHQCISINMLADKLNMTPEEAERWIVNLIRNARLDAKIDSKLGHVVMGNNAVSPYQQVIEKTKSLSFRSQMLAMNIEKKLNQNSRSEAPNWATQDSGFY
UniProt Q13347: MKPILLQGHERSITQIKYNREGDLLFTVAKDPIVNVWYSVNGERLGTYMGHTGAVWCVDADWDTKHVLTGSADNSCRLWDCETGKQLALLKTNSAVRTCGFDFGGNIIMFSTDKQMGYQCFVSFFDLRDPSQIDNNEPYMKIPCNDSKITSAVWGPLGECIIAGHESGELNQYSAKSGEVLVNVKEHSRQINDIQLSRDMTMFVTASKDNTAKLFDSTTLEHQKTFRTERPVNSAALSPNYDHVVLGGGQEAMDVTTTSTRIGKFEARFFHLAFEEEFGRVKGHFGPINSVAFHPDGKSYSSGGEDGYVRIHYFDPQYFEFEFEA

The target of this test is METTL3 (human (endogenous in A549)) (UniProt Q86U44). Description: affinity purification with mass spectrometry; immunoprecipitation with anti-METTL3 from A549 cells, IgG group as control, two replicates each; qualitative protein profiling by mass spectrometry.

Results are given in words; binding and its absence hold for the method and conditions named. Binding seen in cells or lysates may run through a third protein. These calls come from enrichment with a bait or labelling near it, and not all partners need be listed.

For the substance eIF3e (from UniProt P60228 1-445), the binding result is reported as “binds”. eIF3i (from UniProt Q13347 1-325): the binding result is listed as “binds”.
